Measured values taken from patent US7563862B2, “Neural regeneration peptides and methods for their use in treatment of brain damage” (Neuren Pharmaceuticals Limited, priority 2001, dated 2009).
“Also recorded” adds a separate entry of the source. For part of these data: Part of at least one peptide drawing is inferred or uncertain, most often the ends. For part of these data: At least one compound was matched to its structure with a doubt left. Peptide text beside a SMILES is read from it.

How the values were obtained:
[1] = test system: mouse neural stem cells; test: haptotactic migration assay, mouse neural stem cells; type: cell-based; conditions: NRP-9 SD (4 nM); 15 μM PD98509
Method: NRPs were tested for migration-inducing/chemoattractive activity on mouse neural stem cells, EGF-dependent immortalized mouse neural stem cell line MEB5 and wild-type PC-12 cells in a haptotactic migration assay as described below.
Initial NRP Coating. Control wells of Transwell plates (Coming) with 12 μm pore size were coated in 1.5 ml of the BSA/PBS vehicle. Remaining plates were coated using various concentrations of NRPs ranging between 1-100 ng/ml (prepared in PBS containing 10 ug/ml BSA). The plates were then incubated at 37° C. for 1 hr to coat. Wells were then rinsed 2× with 1 ml sterile PBS.
Laminin ([…]) for MEB-5 cells, PDL (50 μg/ml)+Matrigel for mouse primary stem cells and fibronectin (25 ug/ml)+matrigel for PC-12 cells were used as extracellular matrix (ECM) coating for the cells. All ECM compounds were diluted in PBS. 1.5 ml of the ECM per well was incubated for 2 hrs at room temperature. The wells were then rinsed once with Iml serum-free media (e.g. NB/B27) followed by 1 ml PBS wash.
A 5 ug/mL PDL/PLL mixture (in PBS) was used to coat inserts. Subsequently the inserts were rinsed with MilliQ water. […]

[2] = test system: cerebellar microexplants; test: cerebellar microexplant survival assay, 3-NP/glutamate injury; type: cell-based, rat
Method: Toxicological and drug administration experiments were designed such that 1/100 parts of toxin and neuroprotective drug were administered simultaneously to the freshly prepared cerebellar microexplants derived from P-4 or P8 rats. Glutamate was prepared as a 50 mM stock solution in MilliQ water while 50 mM 3-nitropropionic acid was pH-adjusted (pH 6.8-7.2) in MilliQ water. The concentrations of the oxidative stress inducing toxin, 3-nitropropionic acid (3-NP), and the excitotoxin, glutamate, in the assay were 0.5 mM each. Lyophilized peptides were reconstituted in PBS or 100 μg/ml human transferrin as a 10 μM stock solution. Subsequently, serial dilutions were made. […]
For statistical analysis of survival, four fields (each field having an area of 0.65 mm^2) of each fixed cerebellar culture with the highest cell densities were chosen, and cells displaying neurite outgrowth were counted. Statistical significance was measured by Student's t-test.
Laminated cerebellar cortex was extracted from P3/4, P7/8 rat pups and triturated through gauze having a 125 μm pore size to obtain uniformly sized microexplants. […] BrdU was administered at start of cultivation for proliferation rate measurements and cells are counted per microscopic field after 48-72 hrs. […]

[3] = test system: embryonic striatal cells; test: haptotactic migration assay, striatal cells; type: cell-based, rat
Excerpt: To test the cell adhesion and neuronal migration inducing properties of the NRPs a haptotactic migration cell assay was developed (Lu et al.,2001). For this purpose Transwell® cell culture dishes (Costar) with fitting inserts having pores therein with a 12 μm pore size were used to cultivate striatal and neocortical cells. In general, a test agent was adhered to the surface of a culture dish and an insert having pores was placed in culture medium over but not in contact with the surface of the culture dish. Test cells were placed in the inserts, and any cells migrating through the pores and onto the surface of the culture dish reflected chemattractiveness by the test molecule. Under these conditions, the surface of the culture dish would, over time, release some NRP molecules into the culture medium. It can be appreciated that the concentration of “free” NRP would be greater nearer the surface of the culture dish than at distances farther away from the culture dish, thereby creating a gradient in NRP concentration. […] By counting the number and morphology of such migrant cells, effects of NRPs on neuronal migration and differentiation can be evaluated. […]
For seeding striatal cells, 1.5 ml of Neurobasal/B27 medium was put into the culture dishes and 0.5 ml of NeurobasaVB27 medium was put into the insert. The assay was ready for cell seeding. […]

[4] = test system: un-injured cerebellar microexplants; test: proliferation induction without injury, cerebellar microexplants; type: cell-based, rat; conditions: peptide 24 hrs after start, fixed after 3 days in vitro
Method: FIG. 17 depicts results of proliferation induction without injury using NRP-2 segment KG (SEQ ID NO: 18) and rat NRP-1 (SEQ ID NO: 2). Peptides were administered 24hrs after start of cultivation to decrease interference in the assay due to initial neuronal survival or adherence effects. The cultures were fixed after 3 days in vitro. There was neuronal proliferation seen at 300 μM of NRP-2 segment KG (SEQ ID NO: 18).
Within the applied proliferation assay rat NRP-1 (SEQ ID NO:2) and NRP-2KS (SEQ ID NO:23) were tested for neuronal proliferation inducing activity (see FIG. 19). In order to discriminate proliferation from increased survival and cellular adhesion properties, NRP-2 KS (SEQ ID NO:23) was administered 24 hrs after the start of cultivation. Rat NRP-1(SEQ ID NO:2) had specific effects on neuronal proliferation, (see FIGS. 7, 9 and 10). Neuronal proliferation induced by NRP-2KS (SEQ ID NO:23) occurred within a range of about 0.3-30 nM using un-injured cerebellar microexplants (verified by counting cells displaying neurite outgrowth).

Compound | effect of inhibitor on NRP-induced increase in migrating NSC [1] | effect of inhibitor / neutralizing antibody on NRP neuroprotective activity ([2]; with NRP-9 SD, antibody 1 μg/ml 72 hours, wortmannin 100 nM) | more neurons migrating to the culture dish bottom compared to transferrin control ([3]; 150 ng immobilized, reconstituted in human transferrin, 2 days in vitro) [%] | migration inducing activity ([3]; reconstituted in BSA) | concentrations with statistically significant effects ([2]; pre-incubation 15 hrs) | concentration of highest activity / at which neuronal proliferation was seen [4] [µM]
COC[C@H]1OC(=O)c2coc3c2[C@@]1(C)C1=C(C3=O)[C@@H]2CCC(=O)[C@@]2(C)C[C@H]1OC(C)=O [wortmannin, reference compound] | not suppressed | abolished neuroprotection produced by NRP; also recorded: inhibited the neuroprotective activity | – | – | – | –
CC(C)C[C@H](NC(=O)[C@H](CS)NC(=O)[C@@H]1CCCN1C(=O)[C@H](Cc1c[nH]cn1)NC(=O)[C@H](CC(C)C)NC(=O)[C@H](CO)NC(=O)CNC(=O)[C@@H]1CCCN1C(=O)[C@H](C)NC(=O)[C@H](CCCNC(=N)N)NC(=O)[C@H](CCCNC(=N)N)NC(=O)[C@H](C)NC(=O)[C@H](CCC(=O)O)NC(=O)[C@@H]1CCCN1C(=O)[C@H](CC(=O)O)NC(=O)[C@@H](N)CCCCN)C(=O)N[C@@H](C)C(=O)N[C@@H](C)C(=O)N[C@@H](CO)C(=O)N[C@@H](CS)C(=O)N[C@@H](CO)C(=O)N[C@@H](C)C(=O)N[C@@H](C)C(=O)NCC(N)=O [NRP-2 segment KG] (H-KDPEARRAPGSLHPCLAASCSAAG-NH2) | – | – | 466.0 | non-significant | above 1 nM | 300
